We go through one substance from doi:10.1101/2020.04.07.029751.

By UniProt entry, the sequences of proteins in these tests, tags left out.
UniProt O09106: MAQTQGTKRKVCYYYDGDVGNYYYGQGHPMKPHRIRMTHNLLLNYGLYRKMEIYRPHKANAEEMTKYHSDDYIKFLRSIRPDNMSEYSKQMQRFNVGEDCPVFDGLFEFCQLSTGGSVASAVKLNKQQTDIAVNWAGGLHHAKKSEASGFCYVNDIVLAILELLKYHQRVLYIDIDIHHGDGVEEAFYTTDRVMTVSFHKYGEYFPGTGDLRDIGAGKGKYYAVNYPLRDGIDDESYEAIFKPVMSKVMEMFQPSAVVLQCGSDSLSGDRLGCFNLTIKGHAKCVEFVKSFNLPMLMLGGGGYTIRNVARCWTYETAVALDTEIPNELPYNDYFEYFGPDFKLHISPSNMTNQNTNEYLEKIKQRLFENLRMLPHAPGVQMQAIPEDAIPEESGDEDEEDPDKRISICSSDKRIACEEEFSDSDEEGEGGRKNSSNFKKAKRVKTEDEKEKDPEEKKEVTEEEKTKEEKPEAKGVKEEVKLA

These are yes or no findings as the source states them, for the method shown. Binding seen in cells or lysates may run through a third protein. Some results given as binding are weak or reduced against the parent protein; the word gives no strength.

The target of this assay is T1, DNTTIP1 (mouse (endogenous in mESCs)) (UniProt Q99LB0).
T1 sequence: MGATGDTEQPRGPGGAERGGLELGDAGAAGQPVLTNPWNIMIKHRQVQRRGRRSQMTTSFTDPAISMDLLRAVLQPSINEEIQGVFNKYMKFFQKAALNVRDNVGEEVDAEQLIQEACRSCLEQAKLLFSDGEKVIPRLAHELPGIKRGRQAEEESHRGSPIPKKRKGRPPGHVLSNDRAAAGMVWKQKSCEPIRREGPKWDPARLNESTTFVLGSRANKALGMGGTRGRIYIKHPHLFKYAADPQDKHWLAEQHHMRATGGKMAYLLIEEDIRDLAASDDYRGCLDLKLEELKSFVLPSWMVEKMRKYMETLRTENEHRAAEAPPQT
Briefly: co-IP.

“HDAC1 (from UniProt O09106 1-482) (enzyme)”: the binding entry is “binds”.
